The supplement of paper PMC3741180, “A Novel High Throughput Biochemical Assay to Evaluate the HuR Protein-RNA Complex Formation” (PLoS ONE, 2013)
Some of the results follow. Most values lie within the scatter of the assay; repeated measurements hardly agree.

By UniProt entry, the sequences of proteins in these tests, tags left out.
UniProt Q15717, whole entry: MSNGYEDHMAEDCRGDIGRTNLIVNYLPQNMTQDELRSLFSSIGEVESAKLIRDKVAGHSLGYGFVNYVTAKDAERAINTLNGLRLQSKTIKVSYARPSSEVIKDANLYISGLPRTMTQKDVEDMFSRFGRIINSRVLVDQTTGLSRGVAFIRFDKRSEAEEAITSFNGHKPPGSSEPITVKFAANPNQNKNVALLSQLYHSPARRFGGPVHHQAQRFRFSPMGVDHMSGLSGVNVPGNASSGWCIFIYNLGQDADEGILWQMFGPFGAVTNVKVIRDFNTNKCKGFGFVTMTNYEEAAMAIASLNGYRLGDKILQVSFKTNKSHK

These compounds were tested against HuR (ELAVL1) - TNFalpha ARE RNA complex (UniProt Q15717) (assay: AlphaScreen HuR-RNA complex signal Z-score relative to positive (Bi-TNF, DMSO) controls (Z-score (SD units of positive control)); higher = more complex signal). Settings: screen stage: primary screen; compound concentration: 25 nM.

Row | SMILES | AlphaScreen HuR-RNA complex signal Z-score
1 | N=C(N)NS(=O)(=O)c1ccc(N)cc1 | 1.03
2 | COc1cc2c3cc1Oc1cc(ccc1O)C[C@@H]1c4c(cc(OC)c(O)c4Oc4ccc(cc4)C[C@@H]3N(C)CC2)CC[N+]1(C)C | -0.901
3 | Cc1ncc(CO)c(CO)c1O | 1.48
4 | COc1cc(C(=O)NCCCCCC(=O)O)cc(OC)c1OC | 2.09
5 | CC1=C(C(=O)O)N2C(=O)[C@@H](NC(=O)[C@H](N)C3=CCC=CC3)[C@H]2SC1 | -3.07
6 | N[C@@H](CCC(=O)N[C@@H](CS)C(=O)NCC(=O)O)C(=O)O | -0.00679
7 | O=C(O)COCCN1CCN(C(c2ccccc2)c2ccc(Cl)cc2)CC1 (stereo not drawn) | 0.636
8 | N[C@@H]1CONC1=O | -3.12
9 | C#C[C@]1(OC(C)=O)CC[C@H]2[C@@H]3CCC4=CC(=NO)CC[C@@H]4[C@H]3CC[C@@]21CC (mixture of isomers) | 0.474
10 | COc1ccc2cc([C@H](C)CO)ccc2c1 | 0.913
11 | CC(=O)O[C@]1(C(C)=O)CC[C@H]2[C@@H]3C=C(Cl)C4=CC(=O)[C@@H]5C[C@@H]5[C@]4(C)[C@H]3CC[C@@]21C | -3.61
12 | Clc1ccc(CO/N=C(\Cn2ccnc2)c2ccc(Cl)cc2Cl)c(Cl)c1 | 2.78
13 | COc1cc2nc(N(C)CCCNC(=O)C3CCCO3)nc(N)c2cc1OC (stereo not drawn) | 1.27
14 | O=C(O)/C=C/c1ccc(O)c(O)c1 | 0.46
15 | CCCCCCCCCCCCCCCC(=O)OC[C@@H](NC(=O)C(Cl)Cl)[C@H](O)c1ccc([N+](=O)[O-])cc1 | -3.48
16 | Cc1cc(C(C)(C)C)c(O)c(C(C)(C)C)c1 | -5.19
17 | COc1ccc2c(c1)OCC(Cc1ccc(OC)c(O)c1)C2=O (stereo not drawn) | 2.11
18 | O=C(O)c1cn(C2CC2)c2cc(N3CCNCC3)c(F)cc2c1=O | -0.0316
19 | COc1ccc(/C=C/C(=O)c2ccc(O)cc2O)cc1 | 0.149
20 | CC(C)c1c(O)c(-c2cc3c(c(C(C)C)c2O)CCC2C(C)(C)CCC[C@]32C)cc2c1CCC1C(C)(C)CCC[C@]21C (stereo partly drawn) | 1.48
21 | C1CCC(C(CC2CCCCN2)C2CCCCC2)CC1 (stereo not drawn) | 1.66
22 | CC(=O)[C@@]1(O)CC[C@H]2[C@@H]3C[C@H](C)C4=CC(=O)C=C[C@]4(C)[C@@]3(F)[C@@H](O)C[C@@]21C | 6.4
23 | CCc1nc(N)nc(N)c1-c1ccc(Cl)cc1 | -6.26
24 | COc1ccc2c(c1)OC/C(=C/c1ccc(OC)c(OC)c1)C2=O | 0.775

Row | SMILES | AlphaScreen HuR-RNA complex signal Z-score
25 | O=C(O)C1CC([C@@H]2CCCCN2)CN2CCCCC12 (stereo partly drawn) | 0.953
26 | COc1cc(C(=O)NCc2ccc(OCCN(C)C)cc2)cc(OC)c1OC | -0.578
27 | C[C@@H]1CC[C@H]2[C@](C)(CO)[C@@H](O)CC[C@]2(C)[C@@]12CC[C@@](CO)(CCO)O2 | 2.1
28 | Clc1ccc(C(Cn2ccnc2)OCc2ccsc2Cl)c(Cl)c1 (stereo not drawn) | 1.02
29 | C[C@](N)(Cc1ccc(O)c(O)c1)C(=O)O | 4.87
30 | C=CC(C1=CC(=O)C(OC)=CC1=O)c1ccccc1 (stereo not drawn) | 2.47
31 | C[C@H]1c2cccc(O)c2C(=O)C2=C(O)[C@]3(O)C(=O)C(C(N)=O)=C(O)[C@@H](N(C)C)[C@@H]3[C@@H](O)[C@@H]21 | -3
32 | COc1c(CC(=O)c2cc3c(cc2O)OC(C)(C)C(O)C3)ccc2c1C=CC(C)(C)O2 (stereo not drawn) | 1.4
33 | Cc1onc(-c2ccccc2Cl)c1C(=O)N[C@@H]1C(=O)N2[C@@H]1SC(C)(C)[C@@H]2C(=O)O | -3.18
34 | NS(=O)(=O)c1cc2c(cc1Cl)NC(C(Cl)Cl)NS2(=O)=O (stereo not drawn) | -3.09
35 | CN[C@@H]1[C@H](O)[C@H](NC)[C@H]2O[C@@]3(O)C(=O)C[C@@H](C)O[C@H]3O[C@@H]2[C@H]1O | 2.66
36 | CN[C@H](CC(=O)O)C(=O)O | 3.52
37 | CC(=O)Oc1cc(OC(C)=O)c2c(c1)O[C@H](c1ccc(OC(C)=O)c(OC(C)=O)c1)[C@@H](OC(C)=O)C2 | 1.56
38 | CC(C)CCC[C@@H](C)[C@H]1CC[C@H]2[C@@H]3CC(=O)[C@H]4C[C@@H](O)CC[C@]4(C)[C@H]3CC[C@]12C [5alpha-CHOLESTAN-3beta-OL-6-ONE] | 0.822
39 | NCCCC(=O)O [gamma-AMINOBUTYRIC ACID] | 0.593
40 | CCCCCCCCCCCCCCCCCCCCCCO | 1.93
41 | CC12CCC(CC1=O)C2(C)C (stereo not drawn) | 0.307
42 | CN[C@@H]1[C@@H](O[C@H]2O[C@H](CO)[C@@H](N)[C@H](O)[C@H]2O)OC2C[C@@H](N)[C@@H](O[C@H]3[C@H](O)[C@@H](O)[C@H](N)C[C@@H]3N)OC2[C@@H]1O (stereo partly drawn) | 2.9
43 | C=C[C@@](C)(O)CCC1C(=C)CCC2[C@@](C)(CO)CCC[C@]12C (stereo partly drawn) | 0.0438
44 | CC1(C)O[C@H]2CC(=O)OC[C@]23[C@H]2CC[C@@]4(C)[C@H](c5ccoc5)OC(=O)[C@H]5O[C@]54[C@]2(C)C(=O)C[C@@H]13 | 2.68
45 | C[n+]1c2cc(N)ccc2cc2ccc(N)cc21 | -0.96
46 | COc1ccc(-c2coc3cc(OC)ccc3c2=O)cc1 | 0.598
47 | O=C(N[C@H](CO)[C@H](O)c1ccc([N+](=O)[O-])cc1)C(Cl)Cl | -3.31
48 | O=C(O)CCNC(=O)c1ccccc1 | 1.74

Some of these compounds in order of molecular weight, low to high:
Row | SMILES | AlphaScreen HuR-RNA complex signal Z-score
30 | C=CC(C1=CC(=O)C(OC)=CC1=O)c1ccccc1 (stereo not drawn) | 2.47
24 | COc1ccc2c(c1)OC/C(=C/c1ccc(OC)c(OC)c1)C2=O | 0.775
13 | COc1cc2nc(N(C)CCCNC(=O)C3CCCO3)nc(N)c2cc1OC (stereo not drawn) | 1.27
11 | CC(=O)O[C@]1(C(C)=O)CC[C@H]2[C@@H]3C=C(Cl)C4=CC(=O)[C@@H]5C[C@@H]5[C@]4(C)[C@H]3CC[C@@]21C | -3.61

Later entries:

Row | SMILES | AlphaScreen HuR-RNA complex signal Z-score
49 | CCC[C@@H]1C[C@@H](C(=O)N[C@@H]([C@H]2O[C@H](SC)[C@H](O)[C@@H](O)[C@H]2O)[C@H](C)Cl)N(C)C1 | -2.25
50 | CCN(CC)CCNC(=O)c1cc(Cl)c(N)cc1OC | 3.08
51 | COc1ccc(-c2oc3cc(OC)c(OC)c(OC)c3c(=O)c2OC)cc1 | 0.503
52 | NCCCNCCCCNCCCN | -0.0901
53 | CC(C)(CO)C(O)C(=O)NCCCO (stereo not drawn) | 0.639
54 | CN(C)C/C=C(/c1ccc(Br)cc1)c1cccnc1 | 2.34
55 | CCOc1ccc2ccccc2c1C(=O)N[C@@H]1C(=O)N2[C@@H]1SC(C)(C)[C@@H]2C(=O)O | -3.15
56 | Cn1cnc2c1c(=O)[nH]c(=O)n2C | -0.311
57 | CC1=CC(=O)C(C(C)C)=CC1=O | 1.04
58 | OCc1cccnc1 | 0.901
59 | O=Cc1ccccc1O[C@@H]1O[C@H](CO)[C@@H](O)[C@H](O)[C@H]1O | 1.73
60 | COC(=O)C(Cc1ccccc1)NC(=O)/C(=C1/OC(=O)C(c2ccccc2)=C1O)c1ccccc1 (stereo not drawn) | 2.02
61 | CN(C)CCC=C1c2ccccc2COc2ccccc21 | -2.53
62 | CC(C)[N+](C)(CCOC(=O)C1c2ccccc2Oc2ccccc21)C(C)C | 1.61
63 | CN1CCC[C@@H]1Cc1c[nH]c2ccc(CCS(=O)(=O)c3ccccc3)cc12 | -0.883
64 | Cc1cccc(C)c1OCC(C)N (stereo not drawn) | 0.708
65 | COc1cc(C)c2c(c1C=O)Oc1c(c(C)c(O)c3c1C(O)OC3=O)OC2=O (stereo not drawn) | 0.555
66 | CC[C@]1(O)C[C@H]2CN(CCc3c([nH]c4ccccc34)[C@@](C(=O)OC)(c3cc4c(cc3OC)N(C=O)[C@H]3[C@@](O)(C(=O)OC)[C@H](OC(C)=O)[C@]5(CC)C=CCN6CC[C@]43[C@@H]65)C2)C1 | 2.07
67 | COc1ccccc1OCC(O)CO (stereo not drawn) | -1.21
68 | Cc1cc(=O)[nH]c(=S)[nH]1 | 0.504
69 | CC1(C)C2CCC1(C)C(O)C2 (stereo not drawn) | 0.938
70 | Cc1c(N(C)C)c(=O)n(-c2ccccc2)n1C | -0.519
71 | Oc1c(Cl)cc(Cl)c(Cl)c1Cc1c(O)c(Cl)cc(Cl)c1Cl | -2.76
72 | CC(=O)N1CCCC1C(=O)O (stereo not drawn) | 1.99

Row | SMILES | AlphaScreen HuR-RNA complex signal Z-score
73 | Oc1ccc(/C=C/c2cc(O)cc(O)c2)cc1 | 0.372
74 | CCCCCCCCCCCCCCC(C(=O)O)C(O)(CC(=O)OC)C(=O)O (stereo not drawn) | 1.97
75 | Nc1nc2[nH]cnc2c(=S)[nH]1 | 21.5
76 | C/C1=C2/[N-][C@H]([C@H](CC(N)=O)[C@@]2(C)CCC(=O)NC[C@@H](C)OP(=O)([O-])O[C@H]2[C@@H](O)[C@@H](n3cnc4cc(C)c(C)cc43)O[C@@H]2CO)[C@]2(C)N=C(/C(C)=C3N=C(/C=C4N=C1[C@@H](CCC(N)=O)C\4(C)C)[C@@H](CCC(N)=O)[C@]\3(C)CC(N)=O)[C@@H](CCC(N)=O)[C@]2(C)CC(N)=O.[CH2-][C@H]1O[C@H](n2cnc3c(N)ncnc32)[C@@H](O)[C@H]1O.[Co+3] | -0.17
77 | CN(C)C(=O)C(CCN1CCC(O)(c2ccc(Cl)cc2)CC1)(c1ccccc1)c1ccccc1 | 2.31
78 | CC(C(=O)O)c1ccc2c(c1)[nH]c1ccc(Cl)cc12 (stereo not drawn) | 1.72
79 | O=C(O)C1CCCNC1 (stereo not drawn) | 0.525
80 | O=C1c2c(O)cccc2C([C@@H]2O[C@H](CO)[C@@H](O)[C@H](O)[C@H]2O)c2cc(CO)cc(O)c21 (stereo partly drawn) | 1.46
81 | C[C@H]1O[C@@H](O[C@H]2[C@@H](O)C[C@H](O[C@H]3[C@@H](O)C[C@H](O[C@H]4CC[C@@]5(C)[C@H](CC[C@@H]6[C@@H]5C[C@@H](O)[C@]5(C)[C@@H](C7=CC(=O)OC7)CC[C@]65O)C4)O[C@@H]3C)O[C@@H]2C)C[C@H](O)[C@@H]1O | 0.165
82 | O=c1ccc2cc(O)c(O)cc2o1 | 1.86
83 | C[C@H](CCC(=O)O)[C@H]1CC[C@H]2[C@@H]3[C@H](O)C[C@@H]4C[C@H](O)CC[C@]4(C)[C@H]3C[C@H](O)[C@]12C | 1.29
84 | CC(=O)OC1CCC2(C)C(=CCC3C2CCC2(C)C(C(C)CCCC(C)C)CCC32)C1 (stereo not drawn) | 1.87
85 | O=C(OCC(O)CO)c1ccccc1Nc1ccnc2cc(Cl)ccc12 (stereo not drawn) | 1.91
86 | CC(C(=O)O)c1ccc(-c2ccccc2)c(F)c1 (stereo not drawn) | -6.16
87 | Cc1cc(O)c2c(c1)C(=O)c1cccc(O)c1C2=O | 1.6
88 | OC[C@H]1O[C@H](O[C@]2(CCl)O[C@H](CCl)[C@@H](O)[C@@H]2O)[C@H](O)[C@@H](O)[C@H]1Cl | 2.21
89 | O=C(O)[C@@H](O)[C@H](O)[C@H](O)[C@@H](O)C(=O)O | 0.775
90 | Oc1cc(O)c2c(c1)O[C@H](c1ccc(O)c(O)c1)[C@H](O)C2 | 2.02
91 | Nc1nc2ccc(OC(F)(F)F)cc2s1 | -0.149
92 | COc1ccc2c(c1)c(CC(=O)O)c(C)n2C(=O)c1ccc(Cl)cc1 | -2.07
93 | COc1ccc(-c2cc(=O)c3c(O)c(OC)c(O[C@@H]4O[C@H](CO[C@@H]5O[C@@H](C)[C@H](O)[C@@H](O)[C@H]5O)[C@@H](O)[C@H](O)[C@H]4O)cc3o2)cc1 | 1.32
